Measurements as given in article PMC12680179.
Results are given in words; binding and its absence hold for the method and conditions named. Binding seen in cells or lysates may run through a third protein. Some binding calls cover weakened binding; strength is not graded here.

Sequences of proteins named here, by UniProt entry; tags and fusion partners are left off.
UniProt Q13464: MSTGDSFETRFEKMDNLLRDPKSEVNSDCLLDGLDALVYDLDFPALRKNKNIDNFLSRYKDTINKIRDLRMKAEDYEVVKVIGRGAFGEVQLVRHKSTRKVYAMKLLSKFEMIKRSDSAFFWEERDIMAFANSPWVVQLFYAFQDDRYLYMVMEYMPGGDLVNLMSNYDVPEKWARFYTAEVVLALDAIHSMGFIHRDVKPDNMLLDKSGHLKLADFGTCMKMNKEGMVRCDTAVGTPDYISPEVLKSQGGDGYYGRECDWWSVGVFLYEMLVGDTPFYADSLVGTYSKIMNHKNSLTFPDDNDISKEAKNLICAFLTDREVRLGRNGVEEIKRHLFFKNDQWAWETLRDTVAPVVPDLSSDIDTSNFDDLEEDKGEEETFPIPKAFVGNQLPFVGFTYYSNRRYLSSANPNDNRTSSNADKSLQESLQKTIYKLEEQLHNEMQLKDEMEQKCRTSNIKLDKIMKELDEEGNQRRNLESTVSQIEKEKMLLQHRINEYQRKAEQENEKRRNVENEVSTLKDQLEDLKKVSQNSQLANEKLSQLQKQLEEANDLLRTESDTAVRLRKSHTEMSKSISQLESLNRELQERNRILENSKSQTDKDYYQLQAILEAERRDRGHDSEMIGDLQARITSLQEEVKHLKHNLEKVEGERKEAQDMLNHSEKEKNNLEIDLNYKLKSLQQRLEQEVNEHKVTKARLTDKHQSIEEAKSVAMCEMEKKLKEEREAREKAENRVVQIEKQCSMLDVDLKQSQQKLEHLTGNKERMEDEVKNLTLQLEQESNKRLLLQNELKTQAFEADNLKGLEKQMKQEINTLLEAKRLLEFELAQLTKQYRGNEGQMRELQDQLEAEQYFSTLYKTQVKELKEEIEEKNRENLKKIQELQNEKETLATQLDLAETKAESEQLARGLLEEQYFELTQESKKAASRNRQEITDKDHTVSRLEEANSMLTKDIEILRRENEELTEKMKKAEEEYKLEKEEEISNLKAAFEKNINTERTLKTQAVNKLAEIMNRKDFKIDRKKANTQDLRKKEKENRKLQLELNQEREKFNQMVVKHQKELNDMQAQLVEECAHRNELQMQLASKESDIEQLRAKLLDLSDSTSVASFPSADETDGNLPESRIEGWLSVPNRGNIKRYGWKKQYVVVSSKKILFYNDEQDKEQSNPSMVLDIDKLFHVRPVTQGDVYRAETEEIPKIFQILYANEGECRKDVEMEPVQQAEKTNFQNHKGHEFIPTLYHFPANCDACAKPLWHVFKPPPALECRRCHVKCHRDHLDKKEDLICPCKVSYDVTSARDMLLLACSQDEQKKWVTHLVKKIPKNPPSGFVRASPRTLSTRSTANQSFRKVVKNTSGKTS
UniProt Q00987: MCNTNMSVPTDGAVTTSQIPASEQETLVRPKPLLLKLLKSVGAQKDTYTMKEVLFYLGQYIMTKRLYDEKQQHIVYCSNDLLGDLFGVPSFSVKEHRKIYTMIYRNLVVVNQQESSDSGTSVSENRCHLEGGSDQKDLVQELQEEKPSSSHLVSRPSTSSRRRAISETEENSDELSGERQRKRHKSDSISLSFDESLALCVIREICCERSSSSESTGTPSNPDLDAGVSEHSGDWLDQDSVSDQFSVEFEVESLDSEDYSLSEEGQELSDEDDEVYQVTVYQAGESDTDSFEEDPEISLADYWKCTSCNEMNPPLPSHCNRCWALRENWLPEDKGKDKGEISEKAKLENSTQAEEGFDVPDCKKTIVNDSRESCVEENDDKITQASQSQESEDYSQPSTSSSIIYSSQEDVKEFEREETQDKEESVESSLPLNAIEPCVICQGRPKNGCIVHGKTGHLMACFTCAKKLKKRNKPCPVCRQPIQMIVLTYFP

Target: ROCK1 (Rho-associated protein kinase 1) (human (endogenous in Swan 71)) (UniProt Q13464)
Test: co-IP; Swan 71 cells, with or without PS-NPs exposure (24 h treatment); lysis in RIPA buffer with PMSF; lysate pre-cleared with Protein A and Protein G agarose beads; primary or isotype control antibodies overnight at 4 °C; Western blot detection

- binding: binds
Substance: MDM2 (Mouse double minute 2 homolog) (from UniProt Q00987 1-491)
